# About 10,000 (2.8%) of roughly 360,000 compounds were called active. This list was built around the results that the source calls inconclusive (neither active nor inactive); the mix of calls is not that of the screen. The call rests on the fitted dose curve; in most records, active means well fitted inhibition curve with a large enough effect; inconclusive means small, poorly fitted or top-dose-only effect; inactive means flat fitted curve, though single readings scatter. A potency beside an inconclusive call is a rough fit, not a confirmed value.
# Chains of the proteins cited; added tags and fusions are not shown.
# UniProt P53350, whole entry, looked up: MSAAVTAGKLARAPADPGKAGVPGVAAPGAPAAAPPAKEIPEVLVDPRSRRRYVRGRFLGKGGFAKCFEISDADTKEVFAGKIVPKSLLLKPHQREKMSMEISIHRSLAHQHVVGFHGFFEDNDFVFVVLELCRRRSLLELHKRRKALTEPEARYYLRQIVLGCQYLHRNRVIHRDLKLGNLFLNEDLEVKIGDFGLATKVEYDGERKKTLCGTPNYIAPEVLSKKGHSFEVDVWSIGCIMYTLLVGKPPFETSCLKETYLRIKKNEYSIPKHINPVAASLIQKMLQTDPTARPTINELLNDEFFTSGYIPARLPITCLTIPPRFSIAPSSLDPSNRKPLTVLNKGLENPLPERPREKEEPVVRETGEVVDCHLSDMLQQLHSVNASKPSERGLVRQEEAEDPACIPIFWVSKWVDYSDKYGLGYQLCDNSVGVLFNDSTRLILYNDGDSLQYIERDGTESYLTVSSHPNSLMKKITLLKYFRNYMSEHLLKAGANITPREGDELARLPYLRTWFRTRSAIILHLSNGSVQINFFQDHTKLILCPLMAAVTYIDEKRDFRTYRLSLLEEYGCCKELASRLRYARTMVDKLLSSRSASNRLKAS
# Biological target: Serine/threonine-protein kinase PLK1 (Homo sapiens) (UniProt P53350)
# Assay: qHTS for Inhibitors of PLK1-PDB (polo-like kinase 1 - polo-box domain): Primary Screen; further: nearly all actives have a fitted effect of over 65% in size; on max response, negative = inhibition: series mostly up to about 57 µM
# Conditions: Plk1 PBD binding of FITC phosphopeptide, fluorescence polarization
# Description: The polo-like kinase 1 (Plk1) is a member of a conserved subfamily of serine / threonine protein kinases that plays a pivotal roles in cell proliferation. It has a C-terminal non-catalytic region called the polo-box domain (PBD) that plays a crucial role in the subcellular localization of the Plk1. […] Furthermore, depletion of the overexpressed Plk1 by RNAi efficiently induces apoptotic cell death in cancer and reduces tumor growth in mouse xenograft models. Thus, targeting Plk1 is an appealing strategy for anti-cancer therapy. Therefore, this project aimed to screen the Molecular Libraries Small Molecule Repository (MLSMR) using a novel approach to find inhibitors that target the Plk1 PBD instead of the conventional N-terminal catalytic domain. This project employed a fluorescence polarization (FP) assay using a FITC-conjugated phospho-9-mer (p-9-mer) peptide and purified human Plk1 PBD protein. The identified small molecule inhibitors of Plk1 PBD can then further be developed into useful tools for biomedical and clinical research that complements or replaces current relevant disease therapy. NIH Chemical Genomics Center [NCGC] NIH Molecular Libraries Probe Centers Network [MLPCN] MLPCN Grant: MH100728 Assay Submitter (PI): Kyung Lee, NCI
# Four microliter of 25 nM FITC-p-9-mer + 60 nM Plk1 PBD in buffer solution (final concentrations 25 nM and 60 nM respectively) or 4 uL of 25 nM FITC-p-9-mer (final concentration 25 nM) in buffer will be dispensed into a 1,536 Greiner medium-binding black solid plate. Small molecules at final concentrations of 18 nM to 57 uM and positive control phospho-9-mer (sequence: Ac-PPLHSpTAI-NH2) at final concentrations 26 nM to 57 uM and phospho-13-mer (sequence: Ac-[…]pTAI-NH2) at final concentrations of 1 nM to 2.3 uM will be pin-transferred (23 nL) to the plate via a Kalypsys pin-tool robotics equipped with a 1,536-pin array. The reaction plate will be centrifuged for 1 min at 1000 rpm and incubated at room temperature for 10 min. The FITC fluorescence signals will be read using the PerkinElmer ViewLux plate reader at 480 / 20 nm excitation and 540 / 20 nm S and P polarization emission wavelengths. Reagent bottles will be kept submerged into 4 °C recirculating chiller bath and all liquid lines will be covered with aluminum foil to minimize degradation. Library plates will be screened starting from the lowest to the highest concentrations to minimize compound carryover. Vehicle only plates, with DMSO being pin-transferred instead of compound solutions, will be included regularly throughout the screen to record any systematic shifts in assay signal.
# On the % scale 0 is the no-effect control and ±100 the full control effect; potency means the concentration at half of the fitted maximal effect.
Structure (SMILES),Potency,"max response, negative = inhibition"
CC(OCCN1CCCC1)(c1ccc(F)cc1)c1ccc(F)cc1,active: 29.9 µM,–
O=C(O)c1ccccc1-c1nc(-c2ccccc2)c(-c2ccccc2)[nH]1,–,inactive: -5.07%
C#CCNC(=O)C1=C[C@@H](c2ccc(C#C)cc2)C[C@@H](OCCCCO)O1,–,inactive: -12.4%
O=C(NC(Cc1c[nH]c2ccccc12)C(=O)N/N=C/c1ccc(Cl)cc1)c1cccs1 (stereo unspecified),"inconclusive: 29.9 µM [inhibitor, single point]",–
Cc1nn(-c2ccccc2)c2sc(-c3n[nH]c(=S)o3)cc12,"inconclusive: 26.7 µM [inhibitor, partial curve]",–
CCCn1nc(NS(=O)(=O)c2cccc3nonc23)c2cc3ccccc3nc21,"inconclusive: 75.2 µM [inhibitor, partial curve]",–
Cc1ccc(NC(=O)c2ccccc2F)cc1S(=O)(=O)N1CCCCCC1,"inconclusive: 26.7 µM [inhibitor, single point]",–
CC(C)Cc1cc(C(=O)Nc2sc3c(c2C#N)CCC3)no1,active: 23.8 µM,–
C=C(C)C(=O)Nc1cccc(C2=NOC3(C2)C[C@@H](C(N)=O)N(C(=O)C2(C)CC2)C3)c1 (stereo partly specified),"inconclusive: 21.2 µM [inhibitor, partial curve]",–
CC(=O)Nc1ccc2nc(NC(=O)c3cccs3)sc2c1,–,inactive: -10.1%
Oc1c(CN2CCOCC2)cc(CN2CCOCC2)c(O)c1CN1CCOCC1,active: 1.68 µM,–
Oc1c(CN2CCc3ccccc3C2)cc(Cl)c2cccnc12,active: 29.9 µM,–
C=CCn1c(NC(=O)CC)c(C(=O)OCC)sc1=S,"inconclusive: 26.7 µM [inhibitor, single point]",–
Cc1nn2c(nc(N3CCOCC3)c3ccccc32)c1C=C(C#N)C#N,"inconclusive: 37.7 µM [inhibitor, single point]",–
CCc1nc2ccc(C(=O)NC3CCN(Cc4ccccc4)CC3)cn2c1N(CC)CCOC,–,inactive: -18.3%
COC(=O)C1=C(C(=O)OC)[C@@H]2Nc3ccccc3[C@@]23C[C@@H](C(=O)OC)N(C(=O)CC(C)C)C3=N1,"inconclusive: 29.9 µM [inhibitor, single point]",–
CCCn1nc(NS(=O)(=O)c2cccc3nonc23)c2cc3cccc(C)c3nc21,"inconclusive: 29.9 µM [inhibitor, single point]",–
Cc1c(NC(=O)c2cc(-c3ccc(Cl)cc3)on2)c(=O)n(-c2ccccc2)n1C,"inconclusive: 42.3 µM [inhibitor, partial curve, poor fit]",–

Structure (SMILES),Potency,"max response, negative = inhibition"
O=C1c2cccnc2C(Nc2cccc(F)c2)N1Cc1ccco1 (stereo unspecified),–,inactive: 0.81%
CC(Sc1nc(NCc2ccccc2)nc(N2CCOCC2)n1)C(=O)Nc1ccccc1 (stereo unspecified),active: 29.9 µM,–
C=CCSc1nnc(-c2c[nH]c3ccccc23)n1CCOC,–,inactive: -6.5%
C1CCCCCC2(CCCCC1)OCC(CN1CCOCC1)O2 (stereo unspecified),–,inactive: 3.79%
COCc1cc(C)nc2sc(C(=O)OC)c(N)c12,"inconclusive: 26.7 µM [inhibitor, partial curve]",–
O=C(Oc1ccccc1[N+](=O)[O-])c1cccnc1,"inconclusive: 29.9 µM [inhibitor, partial curve]",–
NC(=S)N/N=C\c1c2ccccc2cc2ccccc12,–,inconclusive: -33.5% [inhibitor]
NS(=O)(=O)c1ccc(CCNC(=O)CCS(=O)(=O)c2ccc(Br)cc2)cc1,"inconclusive: 21.2 µM [inhibitor, partial curve]",–
Cc1ccccc1N(C(=O)CNC(=O)c1ccco1)C(C(=O)NC1CCCC1)c1ccncc1 (stereo unspecified),–,inactive: -17.3%
COC1=C(c2ccccc2)C(=O)c2ccccc2C1=O,"inconclusive: 11.9 µM [inhibitor, partial curve]",–
CCOC(=O)c1cc(-c2ccccc2)sc1NC(=O)C(C)N1C(=O)NC(C)(c2ccc(Cl)cc2)C1=O (stereo unspecified),–,inconclusive: -30.2% [inhibitor]
COc1ccc(-c2cc(C(=O)Oc3ccc([N+](=O)[O-])cc3)c3ccccc3n2)cc1,–,inactive: -11%
O=[N+]([O-])c1ccc(S(=O)(=O)N2CCSC2c2ccco2)cc1 (stereo unspecified),active: 11.9 µM,–
FC(F)(F)COc1cc(-c2nnc(SCc3ccccc3)n2Cc2ccco2)cc(OCC(F)(F)F)n1,–,inactive: 4.92%
O=C(N/N=C/c1cc([N+](=O)[O-])cc([N+](=O)[O-])c1O)C(O)(c1ccccc1)c1ccccc1,–,inactive: -19.6%
O=C(CSc1ncn[nH]1)c1cccc([N+](=O)[O-])c1,"inconclusive: 33.6 µM [inhibitor, partial curve]",–
O=C(Nc1cccc(Cl)c1)c1cccnn1,"inconclusive: 37.7 µM [inhibitor, single point]",–
O=C(O)/C(=C\c1ccccc1OC(F)F)c1ccc(-c2ccccc2)cc1,"inconclusive: 23.8 µM [inhibitor, single point]",–

# Record cards (already shown).
# FC(F)(F)COc1cc(-c2nnc(SCc3ccccc3)n2Cc2ccco2)cc(OCC(F)(F)F)n1 as listed: max response, negative = inhibition: inactive: 4.92%
# CC(Sc1nc(NCc2ccccc2)nc(N2CCOCC2)n1)C(=O)Nc1ccccc1 (stereo unspecified) as listed: Potency: active: 29.9 µM

# Source: PubChem BioAssay AID720504 (National Center for Advancing Translational Sciences (NCATS), 2013)
